# Results: patent US20230054375A1 (UAB RESEARCH FOUNDATION, published 2023)
# Amino acid sequences for entries named in this document (tags omitted). Residues count along the entry.
# UniProt Q08722, residues 19-141: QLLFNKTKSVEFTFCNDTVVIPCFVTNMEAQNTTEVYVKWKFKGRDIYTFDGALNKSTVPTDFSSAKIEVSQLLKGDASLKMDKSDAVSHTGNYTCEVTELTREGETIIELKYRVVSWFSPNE
# No constants are given. Whether binding was seen depends on the method and setting. Some binding calls cover weakened binding; strength is not graded here.
# B1: anti-CD47 monoclonal antibody (IgG2b/kappa) (antibody, V domains shown)
# VH: EVQLVESGGGLVQPKGSLKLSCAASGFTFNTYAMNWVRQAPGKGLEWIARIRSKSNNYATYYADSMKDRFTISRDDSQSMLYLQMNNLKTEDTAMYYCVRPAQGAMDYWGHGTSVTVSS
# VL: DIVLTQSPATLSVTPGDSVSLSCRASQRISNNLHWYQQKSHESPRLLIKYSSQSISGIPSRFSGSGSGTDFTLSINSVETEDFGMYFCQQSNAWPYTFGGGTKLEIRR
# notes: The antibody was labelled with Alexa Fluor 647 for flow cytometry and confocal imaging; also called anti-CD47 mAb; CD47 mAb
# Legend:
# [1] = biological target: HEK293 expressed mFc fused CD47 peptide (Gln19-Glu141) (UniProt Q08722); experiment: ELISA screening of hybridoma clones, peptide coated
# [2] = biological target: HEK293 expressed mFc fused CD47 peptide (Gln19-Glu141) (UniProt Q08722); experiment: ELISA screening of hybridoma clones on coated HEK293 expressed CD47 peptide (Gln19-Glu141), read at OD405, mean±SEM, n=3
binder,measurement,setting,value
B1,binding,[1],binds
same,binding,[2],binds
